# In patent US20250353895A1, “METHOD FOR ANALYZING G-PROTEIN CONJUGATED RECEPTOR” (Kao Corporation, priority 2022, published 2025):
# System: HEK293 cells
# Test: Measurement of receptor protein level on cell membrane (flow cytometry), receptor gene co-transfected with RTP1S
# Assay type: cell-based, human
# Conditions: for Consensus Membrane expression level (%): consensus receptor on HEK293 cells
# [1] = PE signal normalised, NC (no receptor) 0%, PC (FLAG-M2 acetylcholine receptor) 100%, average of three experiments
Molecule,"change in membrane expression level by the consensus design method (consensus receptor compared with original receptor, HEK293 cells, average values of three experiments)","Original Membrane expression level (%) (original receptor on HEK293 cells, PE signal normalised, NC (no receptor) 0%, PC (FLAG-M2 acetylcholine receptor) 100%, average of three experiments)",Consensus Membrane expression level (%) [1]
"TAS2R45: original human bitterness receptor TAS2R45 (protein, listed as Homo sapiens) MITFLPIIFSILVVVTFVIGNFANGFIALVNSTEWVKRQKISFADQIVTALAVSRVGLLWVLLLNWYSTVLNPAFYSVELRTTAYNIWAVTGHFSNWPATSLSIFYLLKIANFSNLIFLRLKRRVKSVILVVLLGPLLFLACHLFVVNMNQIVWTKEYEGNMTWKIKLRRAMYLSDTTVTMLANLVPFTVTLISFLLLVCSLCKHLKKMQLHGKGSQDPSTKVHIKVLQTVISFFLLRAIYFVSVIISVWSFKNLENKPVFMFCQAIGFSCSSAHPFILIWGNKKLKQTYLSVLWQMRY",increase,0.17%,–
consensus VN1R5: consensus GPCR of human VN1R5 (protein) MLKLVIIENMAEIMLFSLDLLLFSTDILCFNFPSKMIKLPGFITIQIFFYPQASFGISANTILLLFHIFTFVFSHRSKSIDMIISHLSLIHILLLFTQAILVSLDFFGSQNTQDDLRCKVIVFLNKVMRGLSICTPCLLSVLQAIISPSIFSLAKLKHPSASHILGFFLFSWVLNMFIGVIFCCTLRLPPVKRGQSSVCHTALFLFAHELHPQETVFHTNDFEGCHLYRVHGPLKRLHGDYFIQTIRGYLSAFTQPACPRVSPVKRASQTILLLVSFVFIYWVDFTFSFSRGVTWINDSLLVWFQVIVANSYATISPLMLIYADNQIFKTLQMLWFKYLSPPKLMLKFNRQCGSTKK,–,–,0.31%
consensus TAS2R8: consensus GPCR of human TAS2R8 (protein) MFSPEDNIFIIIITGEFIIGILGNGYIGLVNWIDWIKKKKISSIDYILTSLAISRICLICVMVLNGIIIVLYPDVYTNNKLQIVIFTFWTFANYLSMWFATCLNVFYFLKIANFSHPLFLWLKWRIDRVVHWILLGCLAISLLVSLIAAIVLSCDYRFHKIAKHKRNITEMFHVSKIQYFEPLTLFNLLAIVPFTVSLISFFLLIRSLWRHTKQMKLYVTGCRDPSTEAHVRAMKTMTSFLFLLFVYYISSLLMTFSYLMKEYKLAVMFGEIIAILYPSGHSLILIILNNKLRQASVRMLTCRKIACMM,–,–,53.59%
consensus TAS2R16: consensus GPCR of human TAS2R16 (protein) MIPIQLTVFFMIIYVLESLTIIVQSSLIVAVLGREWVQVRRLSPVDMILISLGICRFCLQWASMLYNFCSYFNPNYVFWYLTITWEFTNILTFWLTSLLAVFYCVKVSSFTHPIFLWLRWRILRLVPWLLLGSLMISCVTIIPSAIGNYIQIQLITMEHLPRNSTVTERLENFHQYFFQAHKTVALVIPFLLFLASTILLMASLTQHLEQMQHHSTGHCNSSMKAHFTALRSLAVFLIFFTSYFLTILISIIGTLFDKRSWFWVWEAFIYAFVSIHSTSLMLSSPTLKRVLKGKC,–,–,49.31%
consensus TAS2R38: consensus GPCR of human TAS2R38 (protein) MLTLTPIRTVSYEVKSTFLFLSVLEFAVGILTNAFIFLVNFWDVVRRQPLSNCDLVLLCLSITRLFLHGLLFLDAIQLTHFQKMKDPLSHSYQTIIMLWMIANQANLWLATCLSLLYCSKIVRFSHTFLLCLASWVSRKIPQMLLGAILFSCICTVLCLWDFFSRSHFTVTTVLFMNNNTELNLQIKKLNFFYSFLFCYLGSIPPFLLFLVSSGVLIVSLGRHMRTMKAYTRDSRDPSLEAHIKALKSLVSFLCFYVVSFCAALISVPLLILWHNKIGVMVCVGIMAACPSGHAAILISGNAKLRRAVMTILLWAQSSLKVRADHKADPRTPDLC,–,–,14.21%
consensus TAS2R42: consensus GPCR of human TAS2R42 (protein) MATGLDKIFLILAIAEFIIGMLGNVFIGLVNCSEWVKNQKVSSADFILTCLAISRIGQLLVILFDSFLVGLAPHLYTTYRLGKTVIMLWHMTNHLTTWLATCLSIFYFLKIAHFSHSLFLWLRWRMNRVILMLLILSLFLLIFDSLLLEIFIDISLNYIIDKSNLTLYLDESKTLYDKLLILLSLTYFIPFSLSLTSLLLLFLSLVRHTRNLQLNSLGSRDSSTEAHKRAMKMVMSFLFLFIVHFFSLQLANWIFFMLWNNKCIKFVMLALNAFPSGHSFILILGNSKLRQTALRLLWHLRNYLKTPNPLPL,–,–,2.95%
consensus TAS2R45: consensus GPCR of human TAS2R45 (protein) MITFLPIIFSILVVVTFVIGNFANGFIALVNSTEWVKRQKISFADQILTALAVSRIGLLWVLLLHWYSIVLNPAFYSVEVRITTYNVWAVTSHFSNWLATSLSIFYLLKIANFSNLIFLHLKRRVKSVILVMLLGPLLFLPCHLFVINMNQIVQTKEYEGNMTWKIKLRRTMFLSDTTVTMLANLVPFTLTLISFLLLICSLCKHLKKMQLHGKGSQDPNTKVHIKALQTVISFLLLCAIYFVFVTISVWSFQTLDNNPVFMFCQAITFSYPSAHPFILIWGNKKLKQTFLSVLWQVRYWVKGQKPSSP,–,–,0.37%
consensus TAS2R46: consensus GPCR of human TAS2R46 (protein) MITFLPIIFSILIVVTFVIGNFANGFIALVNSIEWVKRQKISFADQILTALAVSRVGLLWVLLLHWYATEFNLAFYSIEVRITAYNVWAVTNHFSNWLATSLSIFYLLKIANFSNLIFLHLKRRVKSVILVILLGPLLFLVCHLFVINMNQIVQTKEYEGNMTWKIKLRSAMYLSNMTVTMLANFVPFTLTLISFLLLICSLCKHLKKMQLHGKGSQDPSTKVHIKALQTVTSFLLLCAIYFLSIIMSVWSFESLENKPVFMFCQAIAFSYPSTHPFILIWGNKKLKQTFLSVLWHVRYWVKGQKPSSS,–,–,16.38%
consensus TAAR1: consensus GPCR of human TAAR1 (protein) MPFCHNIINISCVKSSWSNDVRASLYSLMVLIILTTLVGNLIVIISISHFKQLHTPTNWLIHSMATVDFLLGCLVMPYSMVRSVEHCWYFGEVFCKIHTSTDIMLSSASIFHLSFISIDRYYAVCDPLRYKAKINILVICVMIFISWSVPAVFAFGMIFLELNFKGAEEIYYKHVHCRGGCSVFFSKTSGVLAFMTSFYIPGSIMLCVYYRIYLIAKEQARSISDANQKLQIGLEMKNGISQSKERKAAKTLGIVMGVFLICWCPFFICTVMDPFLHYIIPPTLNDALIWFGYLNSTFNPMVYAFFYPWFRRALKMILFGKIFQKDSSRCKLFLE,–,–,90.97%
consensus TAAR2: consensus GPCR of human TAAR2 (protein) MYSFMAGAIFITVFGNLAMIISISYFKQLHTPTNFLILSMAVTDFLLGFTIMPYSMIRSVENCWYFGLTFCKIHYSFDLMLSITSIFHLCSVAIDRFYAICYPLLYSTKMTIPVIKRLLLLCWSVPGAFAFGVVFSEAYADGIEGYDILVACSSSCPVMFNKLWGTTLFMAGFFTPGSVMVGIYGKIFAVSRKHARAINNLPENQNNQMRKDKKAAKTLGIVMGVFLLCWFPCFFTILLDPFLNFSTPVVLFDALTWFGYFNSTCNPLIYGFFYPWFRRALKYILLGKIFSSHFHNTNLFTQKETE,–,–,0.25%
consensus TAAR5: consensus GPCR of human TAAR5 (protein) MRAVFIQGAEEHPAAFCYQVNGSCPRTVHPLGIQLAIYLACAAGMLITVLGNLFVVFAVSYFKALHTPTNFLLLSLALADMLLGLLVLPLSTIRSVESCWFFGDFLCRLHTYLDTLFCLTSIFHLCFISIDRHCAICDPLLYPSKFTVRVALRYILAGWGVPAAYTAFFLYTDVVETGLSQWLEEMPCVGSCQLLFNKFWGWLNFPVFFFPCLIMISLYVKIFVVATRQAQQITTLSKSLAGAAKRERKAAKTLGIAVGIYLLCWLPFTIDTMVDSLLNFITPPLVFDIFIWFAYFNSACNPIIYVFSYRWFRKALKLTLSQKIFSPRTRTVDLYQE,–,–,34.52%
consensus TAAR8: consensus GPCR of human TAAR8 (protein) MTSNFSQPVVQLCYENVNGSCIKTPYSPGSRVILYTVFGFGSLLAVFGNLLVMTSVLHFKQLHSPANFLIASLACADFLVGVTVMPFSMVRSVESCWYFGAKFCTLHSCCDVAFCYSSLFHLCFISIDRYIAVTDPLVYPTKFTVSVSGICISISWILPLVYSGAVFYTGVSDDGMEELVSALNCVGGCQIVVNQDWVLIDFLLFFIPTLVMIILYSKIFLVAKQQAIKIETTGSKAESSSESYKARVAKRERKAAKTLGVTVVAFMISWLPYTIDTLIDAFMGFITPAYIYEICCWGAYYNSAMNPLIYALFYPWFRKAIKLILSGEVLKASSSTISLFSE,–,–,5.54%
consensus TAAR9: consensus GPCR of human TAAR9 (protein) MVNNFSQAEAVELCYENVNGSCIKTPYSPGPRAILYAVLGFGAVLAVFGNLLVIIAILHFKQLHTPTNFLIASLACADFLVGVTVMPFSTVRSVESCWYFGESYCKFHTCFDTSFCFASLFHLCCISIDRYIAVTDPLTYPTKFTVSVSGICIVLSWFFSVTYSFSIFYTGANEEGIEELVVALTCVGGCQAPLNQNWVLLCFLLFFIPTVAMVFIYGKIFLVAKHQARKIESTASQAQSSSESYKERVAKRERKAAKTLGIAMAAFLVSWLPYIIDAVIDAYMNFITPPYVYEILVWCVYYNSAMNPLIYAFFYPWFRKAIKLIVSGKVLRTDSSTTNLFSEEADTD,–,–,5.31%
"consensus TAAR6: consensus GPCR of human TAAR6, N-terminal structure of the original maintained (protein) MSSNSSPLAAVQLCYENVNGSCVKTPYSPGSRVILYIVFGFGAVLAVFGNLLVMISILHFKQLHSPTNFLIASLACADFLVGVTVMPFSMVRSVESCWYFGRSFCTFHTCCDVAFCYSSLFHLCFISIDRYIAVTDPLVYPTKFTVSVSGICISISWILPLVYSGAVFYTGAYDDGLEELSSALNCVGGCQTVVNQNWVLIDFLSFFIPTLVMIILYSNIFLVARQQAKKIENTGSKTESSSESYKARVAKRERKAAKTLGITVVAFMISWLPYSIDSLIDAFMGFITPAYIYEICCWCAYYNSAMNPLIYALFYPWFRKAIKVIVSGQVFKNSSATMNLFSEQI",–,–,21.82%
